Test results as given in PubChem BioAssay AID1259354 (Paczesny and Yang Labs, IUPUI and University of Michigan, 2018).
Hit rate of the full screen: of about 78,000 compounds, about 1,800 (2.3%) were called active. Inconclusive results, whose numbers are uncertain, are shown with a selection of clear calls. Cut-off read from the data, not from the text of the source: active = inhibition above about 30%; inconclusive = mostly about 10% to 28%; inactive = weaker than that.

Amino acid sequences for entries named in this document (tags omitted). A change or cut given only in a name is not applied to a line headed by its entry.
UniProt Q01638: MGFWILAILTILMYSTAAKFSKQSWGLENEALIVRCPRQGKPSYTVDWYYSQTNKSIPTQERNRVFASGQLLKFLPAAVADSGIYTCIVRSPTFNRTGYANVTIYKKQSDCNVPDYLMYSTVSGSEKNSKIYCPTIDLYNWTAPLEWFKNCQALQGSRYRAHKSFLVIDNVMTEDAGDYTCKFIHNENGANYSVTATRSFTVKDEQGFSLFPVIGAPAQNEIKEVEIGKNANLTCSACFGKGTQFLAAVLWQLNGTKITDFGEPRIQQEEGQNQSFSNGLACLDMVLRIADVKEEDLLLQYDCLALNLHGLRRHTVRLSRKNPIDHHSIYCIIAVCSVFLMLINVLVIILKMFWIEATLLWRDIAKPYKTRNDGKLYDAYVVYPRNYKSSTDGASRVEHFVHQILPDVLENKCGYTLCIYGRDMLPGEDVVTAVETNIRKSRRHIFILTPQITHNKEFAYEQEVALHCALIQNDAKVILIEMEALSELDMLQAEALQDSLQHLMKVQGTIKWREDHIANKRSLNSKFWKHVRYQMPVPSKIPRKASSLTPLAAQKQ

Biological target: Interleukin-1 receptor-like 1 (Homo sapiens) (UniProt Q01638)
Assay: blocks human ST2 binding to IL-33, primary screen, biochemical, AlphaLISA (AID 1259354)
Conditions: AlphaLISA ST2-Fc/biotin-IL-33 interaction, 1 h; at 17 µM, hits give high values

Structure (SMILES)	inhibition
COc1cccc(NC(=O)CSc2nnc(Cc3ccccc3)n2C)c1	active: 40%
COc1cccc(C(=O)Nc2ccc([N+](=O)[O-])cc2Cl)c1	inconclusive: 10%
CCN1CCN(C(=O)c2cn(Cc3ccccc3Cl)nn2)[C@@H](C)C1=O	inactive
CC(C)NC(=O)N[C@H]1CCN2C(=O)c3cc(-c4ccccc4)ccc3NC(=O)[C@H]12	inconclusive: 14%
COc1ccc(NS(=O)(=O)c2c(C)[nH]c(=O)[nH]c2=O)c(OC)c1	inconclusive: 10%
O=[N+]([O-])c1ccc(S(=O)(=O)N2CCN(c3ccccn3)CC2)cc1	inactive
Cc1cc(C)n2ncc(CN(Cc3c(C)nn(C)c3C)C3CC3)c2n1	inconclusive: 11%
CCOC(=O)N1CCC(N2CCCC(Nc3ccc4c(c3)OCO4)C2)CC1 (configuration not stated)	inconclusive: 21%
O=C(Nc1cccc2c1CCCC2)C(Cc1ccccc1)NS(=O)(=O)c1cccs1 (configuration not stated)	inconclusive: 17%
CC(Cc1c[nH]c2ccccc12)NC(=O)c1ccc(Cl)cc1 (configuration not stated)	inactive
CCOC(=O)C1(CCCc2ccccc2)CCN(C(=O)c2cccc(C)c2)CC1	inconclusive: 12%
N#Cc1cc2c(nc1SCC(=O)Nc1cc(C(F)(F)F)ccc1Cl)CCC2	inactive
COc1ccccc1S(=O)(=O)CC(SC#N)c1ccccc1 (configuration not stated)	inactive
O=C(c1cncc(N2CCOC(c3ccc(Cl)cc3)C2)n1)N1CCCC1 (configuration not stated)	inconclusive: 13%
CCc1ccc(-c2nc(CSCC(=O)N3CCOCC3)c(C)o2)cc1	inactive
Cc1cc(C)n2nc(SC(C)C(=O)NC3CCCCCCC3)nc2n1 (configuration not stated)	inconclusive: 11%
Cc1c(NC(=O)CCCCCN2C(=O)c3ccccc3C2=O)c(=O)n(-c2ccccc2)n1C	inconclusive: 11%
O=C1C(=O)N(Cc2cccnc2)C(c2cccc([N+](=O)[O-])c2)C1=C(O)c1ccc(F)cc1 (configuration not stated)	inconclusive: 11%
Cc1nonc1-c1cn2cc(Cl)ccc2n1	inconclusive: 11%
COC1=CC(=O)C[C@@H](C)[C@]12Oc1cc(OC)cc(OC)c1C2=O	inconclusive: 13%
O=C(Cn1cnc2sc3c(c2c1=O)CCCC3)Nc1ccc(Oc2ccccc2)cc1	inactive

Three records drawn at random from those above:
Structure (SMILES)	inhibition
Cc1nonc1-c1cn2cc(Cl)ccc2n1	inconclusive: 11%
O=C1C(=O)N(Cc2cccnc2)C(c2cccc([N+](=O)[O-])c2)C1=C(O)c1ccc(F)cc1 (configuration not stated)	inconclusive: 11%
CCOC(=O)C1(CCCc2ccccc2)CCN(C(=O)c2cccc(C)c2)CC1	inconclusive: 12%

Next part.

Structure (SMILES)	inhibition
CC1CCC(NC(=O)c2cc(-c3ccncc3)nc3ccccc23)CC1 (configuration not stated)	inconclusive: 15%
O=[N+]([O-])c1ccc(Nc2c[nH]c3ccccc23)cc1	active: 42%
CCOc1ccc2c(=O)c(Oc3ccccc3)c(C(F)(F)F)oc2c1C	inconclusive: 12%
CCCOc1ccccc1C(=O)N1CCC2(CCN(C)C2)CC1	inactive
Cc1nnc(SCCCNC(=O)c2cc(C(C)C)n3ncnc3n2)s1	inconclusive: 11%
Cc1ccc(Nc2cc(C)nc(N3CCN(S(=O)(=O)c4ccc(Br)cc4)CC3)n2)cc1	inconclusive: 23%
Cc1ccc(C(=O)Nc2ccc(-c3nc4ncccc4o3)cc2)cc1Cl	inconclusive: 24%
Cc1cc(C)n2nc(SC(C)C(=O)NCCC(C)C)nc2n1 (configuration not stated)	inconclusive: 12%
CC1=C(C(=O)Nc2cccnc2)C(c2ccc(O)cc2)n2nc(SCc3ccccc3)nc2N1 (configuration not stated)	inconclusive: 15%
CN1CCCC1CCNC1CC2CCC1C2 (configuration not stated)	inconclusive: 15%
C#CCOc1c(/C=C2\C(=O)ON=C2C)cccc1OC	inactive
COc1cc(/C=C2\C(=O)NN(c3ccccc3)C2=O)ccc1OCCOCCOc1ccccc1	inconclusive: 15%
CC(C)c1cc(C(=O)Nc2cccc(O)c2)no1	inconclusive: 11%
NC(=O)CSc1nc2c(c(=O)n1-c1ccccc1)SCC2	inconclusive: 17%
CN(C)C(=O)c1cc(F)c(F)c(F)c1F	inactive
CNC(=O)C1CCC(Cn2c(=O)c3sccc3n(CC(=O)NC(C)C)c2=O)CC1 (configuration not stated)	inactive
COc1cc(N2CCC3(CC2)CNC(=O)O3)ncn1	inactive
O=C(Nc1ccc(N2CCC(N3CCCN(Cc4ccc(F)cc4)CC3)CC2)cc1)C1CCCC1	inconclusive: 12%
O=C(Nc1cccc(NC(=O)c2ccccc2Cl)c1)c1cccc([N+](=O)[O-])c1	inactive
N#CC1=C2SCN(c3ccccc3)CN2C(=O)CC1c1ccccc1 (configuration not stated)	inconclusive: 12%
CCc1ccc(CN2CCC3(CCCN(Cc4ccccc4F)C3=O)C2)o1 (configuration not stated)	inactive

Structure (SMILES)	inhibition
Cc1ccccc1NC(=O)NCCc1nc2cccnc2n1-c1ccccc1	inconclusive: 17%
CCN(Cc1cc(Cl)ccc1OC)C(=O)[C@@H](N)Cc1ccccc1	inconclusive: 20%
O=C1CCC([N+](=O)[O-])C(c2ccc(Br)cc2)N1 (configuration not stated)	inconclusive: 20%
CNC(NC(=O)c1ccc(F)cc1)C(Cl)(Cl)Cl (configuration not stated)	inconclusive: 13%
COc1ccc(CNC(=O)CCC2CCCN(C(=O)C3CCOCC3)C2)c(OC)c1 (configuration not stated)	inactive
COc1ccc(S(=O)(=O)N2CCC(N3CCCCCC3)CC2)cc1	inconclusive: 10%
Cc1sc(CO)c(Sc2ccccc2)c1C(=O)O	inconclusive: 13%
CCc1ccc(N=Cc2cc(OC)ccc2O)cc1	inconclusive: 22%
COc1ccc(C(C[N+](=O)[O-])c2c(C)[nH]c3ccccc23)cc1OC (configuration not stated)	inconclusive: 16%
CN(CC(O)Cn1c2ccccc2c2ccccc21)S(C)(=O)=O (configuration not stated)	inconclusive: 12%
CC(C)CNc1nc(-c2ccccc2)nc2ccccc12	inactive
O=C(Nc1ccc([N+](=O)[O-])cc1NC(=O)C1CCCCC1)C1CCCCC1	inconclusive: 11%
CCCOc1cccc(C(=O)Nc2cc(Cl)ccc2C(=O)O)c1	inactive
O=C(CN(c1ccccc1)S(=O)(=O)c1ccc(Cl)cc1)Nc1ccccc1	inconclusive: 18%
COc1ccccc1CN(Cc1cccnc1)Cc1ccoc1	inconclusive: 16%
Cn1c2c(c3cc(-c4cccc5c4CCNC5)ccc31)CCCC2=O	inconclusive: 29%
CCOC(=O)c1c(C)nc(NC(C)=O)nc1N	inactive
CCN(CC)c1ccc(/C=C2/NC(=O)NC2=O)c(OC)c1	inconclusive: 12%
Cc1cc([N+](=O)[O-])nn1CCCC(=O)Nc1ccc(F)cc1F	inactive
Cc1nn(C(C)C)c(C)c1CN(C)C(=O)c1ccc(CSc2ncccn2)o1	inactive
